In PMC5393896:
These are yes or no findings as the source states them, for the method shown. In cells and extracts the contact can be indirect. These calls come from enrichment with a bait or labelling near it, and not all partners need be listed.

By UniProt entry, the sequences of proteins in these tests, tags left out. Residues count along the entry.
UniProt P53731: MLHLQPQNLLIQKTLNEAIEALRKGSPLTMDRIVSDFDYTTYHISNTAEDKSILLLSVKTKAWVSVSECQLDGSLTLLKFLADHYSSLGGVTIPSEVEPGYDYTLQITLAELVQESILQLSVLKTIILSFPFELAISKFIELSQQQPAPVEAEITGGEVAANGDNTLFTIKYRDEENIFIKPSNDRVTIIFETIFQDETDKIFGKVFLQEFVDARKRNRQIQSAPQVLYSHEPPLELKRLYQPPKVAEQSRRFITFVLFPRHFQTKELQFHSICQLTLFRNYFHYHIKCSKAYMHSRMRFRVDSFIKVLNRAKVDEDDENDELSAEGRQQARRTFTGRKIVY
UniProt P38328: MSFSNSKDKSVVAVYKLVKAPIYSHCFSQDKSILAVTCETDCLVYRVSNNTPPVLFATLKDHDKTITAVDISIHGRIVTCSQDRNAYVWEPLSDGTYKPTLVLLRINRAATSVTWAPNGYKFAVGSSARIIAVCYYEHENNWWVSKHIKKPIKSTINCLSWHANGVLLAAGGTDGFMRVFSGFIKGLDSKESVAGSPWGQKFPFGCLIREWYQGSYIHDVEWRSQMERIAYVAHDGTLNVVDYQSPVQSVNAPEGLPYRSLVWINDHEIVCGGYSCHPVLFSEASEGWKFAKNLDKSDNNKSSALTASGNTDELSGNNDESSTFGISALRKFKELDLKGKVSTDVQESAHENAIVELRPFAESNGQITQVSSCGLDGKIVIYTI
UniProt P32381: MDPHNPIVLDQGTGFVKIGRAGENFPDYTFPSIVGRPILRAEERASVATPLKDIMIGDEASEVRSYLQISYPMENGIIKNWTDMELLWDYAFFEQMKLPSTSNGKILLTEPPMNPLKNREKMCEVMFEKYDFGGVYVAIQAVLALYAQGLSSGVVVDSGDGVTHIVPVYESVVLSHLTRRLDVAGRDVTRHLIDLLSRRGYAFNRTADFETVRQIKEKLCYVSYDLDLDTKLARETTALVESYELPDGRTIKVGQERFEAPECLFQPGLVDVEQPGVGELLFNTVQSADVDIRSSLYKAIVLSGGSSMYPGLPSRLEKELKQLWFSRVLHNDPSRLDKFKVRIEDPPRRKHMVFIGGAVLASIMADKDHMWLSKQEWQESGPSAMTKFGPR
UniProt P47117: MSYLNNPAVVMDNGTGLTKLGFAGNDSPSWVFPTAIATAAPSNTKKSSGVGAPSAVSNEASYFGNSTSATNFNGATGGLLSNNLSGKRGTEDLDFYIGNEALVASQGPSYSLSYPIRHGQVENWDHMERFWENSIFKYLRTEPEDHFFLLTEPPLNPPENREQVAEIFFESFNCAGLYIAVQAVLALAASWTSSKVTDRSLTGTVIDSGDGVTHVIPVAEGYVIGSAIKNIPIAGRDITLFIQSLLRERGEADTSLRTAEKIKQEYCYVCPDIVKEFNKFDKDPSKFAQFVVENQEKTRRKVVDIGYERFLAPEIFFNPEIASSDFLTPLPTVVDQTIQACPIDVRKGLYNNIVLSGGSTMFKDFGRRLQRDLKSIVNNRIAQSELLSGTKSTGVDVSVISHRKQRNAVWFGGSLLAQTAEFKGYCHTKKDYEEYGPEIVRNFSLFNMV
UniProt P25694: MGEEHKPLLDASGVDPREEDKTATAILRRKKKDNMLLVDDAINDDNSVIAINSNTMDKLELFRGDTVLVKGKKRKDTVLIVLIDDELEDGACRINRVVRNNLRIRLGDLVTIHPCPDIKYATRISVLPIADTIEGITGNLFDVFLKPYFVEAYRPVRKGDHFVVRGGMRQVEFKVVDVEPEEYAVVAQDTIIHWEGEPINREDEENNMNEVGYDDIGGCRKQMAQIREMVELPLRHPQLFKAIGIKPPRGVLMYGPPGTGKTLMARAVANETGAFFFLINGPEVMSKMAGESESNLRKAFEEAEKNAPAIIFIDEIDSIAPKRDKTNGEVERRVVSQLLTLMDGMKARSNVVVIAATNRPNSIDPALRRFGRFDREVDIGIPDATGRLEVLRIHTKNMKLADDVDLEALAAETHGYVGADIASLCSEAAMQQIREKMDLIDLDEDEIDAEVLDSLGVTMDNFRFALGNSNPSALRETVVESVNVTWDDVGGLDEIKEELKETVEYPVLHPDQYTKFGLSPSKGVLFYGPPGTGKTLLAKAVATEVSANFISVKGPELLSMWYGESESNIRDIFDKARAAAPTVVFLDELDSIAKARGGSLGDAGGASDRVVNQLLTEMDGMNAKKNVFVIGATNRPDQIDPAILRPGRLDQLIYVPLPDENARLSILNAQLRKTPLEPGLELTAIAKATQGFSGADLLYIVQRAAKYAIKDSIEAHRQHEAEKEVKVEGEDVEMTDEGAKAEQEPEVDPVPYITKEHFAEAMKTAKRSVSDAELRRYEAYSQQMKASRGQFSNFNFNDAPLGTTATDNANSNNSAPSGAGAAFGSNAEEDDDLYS
UniProt P19882, residues 26-572: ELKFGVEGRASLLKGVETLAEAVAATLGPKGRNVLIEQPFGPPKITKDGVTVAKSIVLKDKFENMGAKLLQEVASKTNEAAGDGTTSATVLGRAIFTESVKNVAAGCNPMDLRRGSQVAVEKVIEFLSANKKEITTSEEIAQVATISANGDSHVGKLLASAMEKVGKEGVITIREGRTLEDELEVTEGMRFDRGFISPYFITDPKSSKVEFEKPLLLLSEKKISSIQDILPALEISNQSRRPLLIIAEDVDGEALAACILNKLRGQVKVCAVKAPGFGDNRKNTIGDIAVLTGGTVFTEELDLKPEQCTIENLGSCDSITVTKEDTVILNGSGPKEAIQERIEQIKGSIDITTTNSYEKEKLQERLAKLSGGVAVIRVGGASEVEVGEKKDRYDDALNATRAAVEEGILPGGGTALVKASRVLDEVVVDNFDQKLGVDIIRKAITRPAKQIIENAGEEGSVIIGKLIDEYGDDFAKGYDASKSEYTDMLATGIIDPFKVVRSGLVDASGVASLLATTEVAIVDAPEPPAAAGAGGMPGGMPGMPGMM
UniProt P32599: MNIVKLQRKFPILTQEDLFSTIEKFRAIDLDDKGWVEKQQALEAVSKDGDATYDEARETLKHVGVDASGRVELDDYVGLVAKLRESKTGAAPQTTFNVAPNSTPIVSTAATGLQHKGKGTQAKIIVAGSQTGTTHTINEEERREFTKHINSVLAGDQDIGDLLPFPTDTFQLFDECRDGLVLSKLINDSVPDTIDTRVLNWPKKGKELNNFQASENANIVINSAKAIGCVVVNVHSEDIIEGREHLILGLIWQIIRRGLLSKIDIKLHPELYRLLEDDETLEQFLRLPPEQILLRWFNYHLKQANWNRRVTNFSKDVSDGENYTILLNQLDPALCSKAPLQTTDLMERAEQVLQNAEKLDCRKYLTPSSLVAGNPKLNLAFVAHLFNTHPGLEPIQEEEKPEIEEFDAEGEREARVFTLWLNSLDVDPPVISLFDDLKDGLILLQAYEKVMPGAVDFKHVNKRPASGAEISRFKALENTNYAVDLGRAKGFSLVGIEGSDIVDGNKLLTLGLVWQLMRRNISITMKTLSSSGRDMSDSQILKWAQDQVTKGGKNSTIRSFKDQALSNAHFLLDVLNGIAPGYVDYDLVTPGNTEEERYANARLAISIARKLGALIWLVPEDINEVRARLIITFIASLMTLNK

These substances were tested against Sup35 translation termination factor tagged at its C-terminus with a tandem affinity purification (TAP) tag (S. cerevisiae) (UniProt P05453) (assay: affinity purification with mass spectrometry; Sup35-TAP affinity-purified by TAP chromatography from [PIN+][psi-] wild-type and tsa1 tsa2 mutant strains grown for 20 hours; co-purifying proteins identified by LC-MS in triplicate, kept if found in at least two of three replicates).

binding, binds:
Act1 (from UniProt P60010 1-375) (other; other documents disagree on this pair)
Arc35 (from UniProt P53731 1-342)
Arc40 (from UniProt P38328 1-384)
Arp2 (from UniProt P32381 1-391)
Arp3 (from UniProt P47117 1-449)
Cdc48 (from UniProt P25694 1-835)
Hsp60 (from UniProt P19882 26-572)
Sac6 (from UniProt P32599 1-642)
